# Experimental data from the supplement of paper PMC9135407.
# Where “and” joins values, the source holds several entries; their conditions need not be identical. Identical values can stand only once. Counter-ions that a name gives are not always drawn. ± gives the standard deviation of the averaged measurements. This is one part of the list. Baselines shift from plate to plate; read single values as rough.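 Primary human stellate myofibroblasts activated in culture; inactivation shown by regained lipid droplets. Readout: fraction of Hoechst-counted cells exceeding a per-plate Bodipy threshold, duplicate wells, each plate with DMSO negative and nortriptyline positive controls. Hits: control-normalized score beyond the plate's top-tenth-percentile nortriptyline wells, or among its three best wells. Final well concentrations unstated.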
# System: primary human hepatic stellate cells (donor 1)
# Assay: percent Bodipy-positive cells; higher = more lipid droplet accumulation
# Conditions: 48 h
# [1] = library stock concentration: 10 mM
# [2] = library stock concentration: 3.33 mM
# [3] = library stock concentration: 2 mM
compound,measurement,setting,value
O=C1C=C2C(=CCOC2O)O1 (stereo unspecified) [Patulin],percent Bodipy-positive cells,[1],96.3 ± 1.5%
CCC1(C)CC(=O)NC(=O)C1 [Bemegride],percent Bodipy-positive cells,,6.09 ± 2.5%
same,percent Bodipy-positive cells,[2],6.42 ± 2.2%
same,percent Bodipy-positive cells,[1],21.2 ± 5.3%
C[C@@]12C(=O)OC(=O)[C@]1(C)[C@H]1CC[C@@H]2O1 [Cantharidin],percent Bodipy-positive cells,,100%
same,percent Bodipy-positive cells,[1],100% and 98.7%
same,percent Bodipy-positive cells,library stock concentration: 25.5 mM,98.5 ± 2.1%
COC(C)(C)CCC[C@H](C)C/C=C/C(C)=C/C(=O)OC(C)C [Methoprene (s)],percent Bodipy-positive cells,[1],37.4 ± 2.8%
CCCCC/C=C\C/C=C\C/C=C\C/C=C\CCCC(=O)NC1CC1 [Arachidonoyl Cyclopropylamide],percent Bodipy-positive cells,library stock concentration: 1 mM,10.4 ± 3.3%
CCCC(C)(COC(N)=O)COC(=O)NC(C)C (stereo unspecified) [Carisoprodol],percent Bodipy-positive cells,,43.3 ± 15%
same,percent Bodipy-positive cells,library stock concentration: 7.7 mM,2.66 ± 2.1%
same,percent Bodipy-positive cells,[1],8.85 ± 1.4%
C#CC(C)(O)CC (stereo unspecified),percent Bodipy-positive cells,[1],33.1 ± 9.4%
O=C1C=C2C(C(C)=C1O)=CC=C3[C@]2(CCC4([C@@H]5C[C@@](CC[C@@]5(CC[C@]34C)C)([C@@](O)=O)C)C)C (stereo partly specified) [Celastrol],percent Bodipy-positive cells,[3],98.83 ± 0.14%
same,percent Bodipy-positive cells,[1],97.3 ± 1.2%
CN1C2CCC1CC(O)C2 (stereo unspecified) [Tropine],percent Bodipy-positive cells,,10.9 ± 3%
COc1cc(OC)c(OC)cc1C=O [Asaraldehyde],percent Bodipy-positive cells,[2],9.48 ± 0.49%
same,percent Bodipy-positive cells,[1],8.84 ± 0.92%
COc1cc(OC)c(OC)cc1C=O [Asarylaldehyde],percent Bodipy-positive cells,[1],26.4 ± 4%
C[N+]1(C)CCCC(OC(=O)C(O)(c2ccccc2)c2ccccc2)C1 (stereo unspecified) [Cantil],percent Bodipy-positive cells,[1],29.1 ± 2.5%
C[N+]1(C)CCCC(OC(=O)C(O)(c2ccccc2)c2ccccc2)C1 (stereo unspecified) [Mepenzolate bromide],percent Bodipy-positive cells,,8.69 ± 0.82%
same,percent Bodipy-positive cells,library stock concentration: 4.8 mM,3.23 ± 0.55%
same,percent Bodipy-positive cells,[1],11 ± 1.3%
COc1cc(N)c(Cl)cc1C(=O)NC1CN2CCC1CC2 (stereo unspecified) [Zacopride hydrochloride],percent Bodipy-positive cells,[1],9.55 ± 2.8%
COc1cc(N)c(Cl)cc1C(=O)NC1CN2CCC1CC2 (stereo unspecified) [Zacopride],percent Bodipy-positive cells,[1],19 ± 9.5%
Cc1sc2c(c1C)C(c1ccc(Cl)cc1)=NC(CC(N)=O)c1nnc(C)n1-2 (stereo unspecified),percent Bodipy-positive cells,[2],45.2 ± 5.2%
same,percent Bodipy-positive cells,[1],49.7 ± 3.6%
OC(c1ccccc1)(c1ccccc1)C1CCNCC1 [Azacyclonol],percent Bodipy-positive cells,,65.5 ± 10%
same,percent Bodipy-positive cells,[2],12 ± 3.8%
same,percent Bodipy-positive cells,[1],74.4 ± 15%
N[C@@H]1C[C@H]1c1ccccc1.N[C@H]1C[C@@H]1c1ccccc1 [Tranylcypromine],percent Bodipy-positive cells,library stock concentration: 80 uM,34 ± 2.2%
same,percent Bodipy-positive cells,library stock concentration: 400 uM,37.52 ± 0.14%
same,percent Bodipy-positive cells,[3],44.7 ± 1.6%
same,percent Bodipy-positive cells,[1],42.17 ± 0.14%
same,percent Bodipy-positive cells,library stock concentration: 15 mM,10.5 ± 0.96%
N[C@@H]1C[C@H]1c1ccccc1.N[C@H]1C[C@@H]1c1ccccc1 [Tranylcypromine sulfate],percent Bodipy-positive cells,library stock concentration: 8.6 mM,12.8 ± 2.5%
same,percent Bodipy-positive cells,[1],24.4 ± 7%
"NC1CCc2cc(O)c(O)cc2C1 (stereo unspecified) [6,7-ADTN hydrobromide]",percent Bodipy-positive cells,[1],37.2 ± 16%
NC1CCc2cc(O)c(O)cc2C1 (stereo unspecified),percent Bodipy-positive cells,library stock concentration: 27.9 mM,21.2 ± 4.5%
COc1ccc2[nH]cc(C3=CCNCC3)c2c1.COc1ccc2[nH]cc(C3=CCNCC3)c2c1.O=C(O)CCC(=O)O,percent Bodipy-positive cells,[1],96.1 ± 2.5%
COc1ccc(CNC(=O)/C=C/c2ccc3[nH]cc(CCN(C)C)c3c2)cc1,percent Bodipy-positive cells,[1],95.2 ± 0.93%
